Measured values from the supplement of paper PMC12823440, “Inhibitors supercharge kinase turnover through native proteolytic circuits” (Nature, 2025).
The list shows a part of the results. Hit calls seldom repeat between salt and free forms of one compound.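 Kinases were expressed as nanoluciferase fusions in K562 cells and luminescence was read every 4 h between 2 and 18 h as percent of control, DMSO set to 100% and a positive control to 0%. A time point counts as decreased when the signal drops significantly (2 sigma). The hit call is the authors' own, does not follow from the count of time points alone, and its rule is not shown.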

Chains of the proteins cited; added tags and fusions are not shown. Lines headed by an entry give the natural chain unless they say otherwise; changes in a name come on top.
UniProt O75460: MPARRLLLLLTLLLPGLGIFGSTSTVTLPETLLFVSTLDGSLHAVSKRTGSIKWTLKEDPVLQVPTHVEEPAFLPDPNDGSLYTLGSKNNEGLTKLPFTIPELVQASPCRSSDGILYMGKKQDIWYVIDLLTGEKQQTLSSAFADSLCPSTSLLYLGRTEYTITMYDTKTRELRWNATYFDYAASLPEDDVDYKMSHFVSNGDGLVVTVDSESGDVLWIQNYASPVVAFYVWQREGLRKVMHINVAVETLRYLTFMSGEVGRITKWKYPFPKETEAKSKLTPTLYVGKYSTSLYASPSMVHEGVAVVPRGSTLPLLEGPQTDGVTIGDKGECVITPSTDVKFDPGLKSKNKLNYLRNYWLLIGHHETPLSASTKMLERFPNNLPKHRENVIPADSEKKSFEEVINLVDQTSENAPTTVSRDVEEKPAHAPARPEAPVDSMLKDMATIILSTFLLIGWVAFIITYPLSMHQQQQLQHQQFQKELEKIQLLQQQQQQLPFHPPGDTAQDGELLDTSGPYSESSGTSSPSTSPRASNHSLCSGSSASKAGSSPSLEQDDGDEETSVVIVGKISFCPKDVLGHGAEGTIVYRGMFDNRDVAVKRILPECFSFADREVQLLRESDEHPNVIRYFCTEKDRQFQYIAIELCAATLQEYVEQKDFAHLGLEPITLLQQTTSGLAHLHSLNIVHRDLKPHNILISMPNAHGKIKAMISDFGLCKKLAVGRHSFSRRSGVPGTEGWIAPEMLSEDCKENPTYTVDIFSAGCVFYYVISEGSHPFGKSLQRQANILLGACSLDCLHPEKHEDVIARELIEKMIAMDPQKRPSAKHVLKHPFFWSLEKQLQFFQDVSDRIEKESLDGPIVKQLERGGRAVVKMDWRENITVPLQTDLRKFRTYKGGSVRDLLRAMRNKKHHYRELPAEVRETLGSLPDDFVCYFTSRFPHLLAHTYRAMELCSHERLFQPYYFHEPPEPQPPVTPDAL
UniProt P11362, whole entry, looked up: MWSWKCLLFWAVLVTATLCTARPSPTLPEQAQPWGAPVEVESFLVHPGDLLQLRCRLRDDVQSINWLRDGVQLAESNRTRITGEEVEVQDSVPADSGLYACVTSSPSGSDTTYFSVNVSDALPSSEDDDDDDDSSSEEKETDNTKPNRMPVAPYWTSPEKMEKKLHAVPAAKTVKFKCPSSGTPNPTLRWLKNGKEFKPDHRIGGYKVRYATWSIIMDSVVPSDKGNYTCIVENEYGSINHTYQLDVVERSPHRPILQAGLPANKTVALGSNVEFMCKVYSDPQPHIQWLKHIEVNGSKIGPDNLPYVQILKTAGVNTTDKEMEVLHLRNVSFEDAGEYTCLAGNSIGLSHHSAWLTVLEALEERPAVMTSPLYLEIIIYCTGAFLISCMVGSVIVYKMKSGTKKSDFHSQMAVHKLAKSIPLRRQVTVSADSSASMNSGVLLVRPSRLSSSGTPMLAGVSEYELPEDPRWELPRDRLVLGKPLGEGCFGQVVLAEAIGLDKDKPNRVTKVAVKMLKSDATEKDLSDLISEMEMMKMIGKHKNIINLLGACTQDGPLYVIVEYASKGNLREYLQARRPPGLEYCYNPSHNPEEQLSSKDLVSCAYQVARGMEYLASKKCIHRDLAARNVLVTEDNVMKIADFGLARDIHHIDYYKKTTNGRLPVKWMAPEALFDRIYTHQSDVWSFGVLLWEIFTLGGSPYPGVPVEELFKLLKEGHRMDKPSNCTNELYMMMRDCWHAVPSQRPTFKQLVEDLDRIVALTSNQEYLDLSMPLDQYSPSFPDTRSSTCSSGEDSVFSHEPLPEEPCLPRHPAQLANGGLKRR
UniProt P21802, whole entry, looked up: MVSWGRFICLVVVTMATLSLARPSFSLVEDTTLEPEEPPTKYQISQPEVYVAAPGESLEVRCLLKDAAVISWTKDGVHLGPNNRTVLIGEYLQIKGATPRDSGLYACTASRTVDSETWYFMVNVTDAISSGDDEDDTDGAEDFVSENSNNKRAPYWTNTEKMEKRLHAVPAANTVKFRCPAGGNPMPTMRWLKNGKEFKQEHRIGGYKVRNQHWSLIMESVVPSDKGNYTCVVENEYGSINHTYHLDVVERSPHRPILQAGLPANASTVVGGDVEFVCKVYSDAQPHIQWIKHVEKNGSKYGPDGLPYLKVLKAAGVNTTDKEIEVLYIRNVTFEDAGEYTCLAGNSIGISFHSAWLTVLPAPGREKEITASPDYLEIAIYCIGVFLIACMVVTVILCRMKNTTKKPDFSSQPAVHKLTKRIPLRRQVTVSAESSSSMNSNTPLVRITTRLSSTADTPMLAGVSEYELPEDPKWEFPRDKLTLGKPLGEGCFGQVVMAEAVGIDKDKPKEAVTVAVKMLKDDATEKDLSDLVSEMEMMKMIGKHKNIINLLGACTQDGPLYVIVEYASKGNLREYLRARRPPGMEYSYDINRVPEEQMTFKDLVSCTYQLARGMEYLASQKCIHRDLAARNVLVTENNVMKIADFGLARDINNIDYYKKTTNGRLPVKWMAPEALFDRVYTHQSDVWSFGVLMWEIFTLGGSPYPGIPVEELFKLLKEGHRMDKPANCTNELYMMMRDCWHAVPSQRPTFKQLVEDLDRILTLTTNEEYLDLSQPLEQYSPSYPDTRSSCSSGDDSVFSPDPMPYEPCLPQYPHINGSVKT
UniProt P22607, whole entry, looked up: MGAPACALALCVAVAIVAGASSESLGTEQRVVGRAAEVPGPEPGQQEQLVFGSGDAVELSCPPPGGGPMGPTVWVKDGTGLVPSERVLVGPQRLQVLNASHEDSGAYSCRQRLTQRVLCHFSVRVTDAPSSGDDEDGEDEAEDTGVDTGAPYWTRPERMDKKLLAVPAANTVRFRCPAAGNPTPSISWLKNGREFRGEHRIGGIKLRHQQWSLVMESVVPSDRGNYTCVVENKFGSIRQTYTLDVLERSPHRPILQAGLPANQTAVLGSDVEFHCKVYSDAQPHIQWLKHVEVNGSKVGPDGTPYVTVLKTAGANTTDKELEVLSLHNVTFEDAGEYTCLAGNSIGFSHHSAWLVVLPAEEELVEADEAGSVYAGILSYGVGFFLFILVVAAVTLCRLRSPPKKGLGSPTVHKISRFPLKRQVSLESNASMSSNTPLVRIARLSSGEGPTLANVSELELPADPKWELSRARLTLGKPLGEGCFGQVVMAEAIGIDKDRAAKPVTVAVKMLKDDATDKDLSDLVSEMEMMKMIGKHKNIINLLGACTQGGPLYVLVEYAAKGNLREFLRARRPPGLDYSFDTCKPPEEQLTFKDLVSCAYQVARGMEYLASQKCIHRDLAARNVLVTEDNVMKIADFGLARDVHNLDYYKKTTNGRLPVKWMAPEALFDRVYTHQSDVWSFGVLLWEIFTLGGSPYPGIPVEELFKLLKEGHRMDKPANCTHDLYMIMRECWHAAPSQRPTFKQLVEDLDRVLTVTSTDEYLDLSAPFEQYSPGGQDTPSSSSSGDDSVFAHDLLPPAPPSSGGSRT
UniProt P06241, whole entry, looked up: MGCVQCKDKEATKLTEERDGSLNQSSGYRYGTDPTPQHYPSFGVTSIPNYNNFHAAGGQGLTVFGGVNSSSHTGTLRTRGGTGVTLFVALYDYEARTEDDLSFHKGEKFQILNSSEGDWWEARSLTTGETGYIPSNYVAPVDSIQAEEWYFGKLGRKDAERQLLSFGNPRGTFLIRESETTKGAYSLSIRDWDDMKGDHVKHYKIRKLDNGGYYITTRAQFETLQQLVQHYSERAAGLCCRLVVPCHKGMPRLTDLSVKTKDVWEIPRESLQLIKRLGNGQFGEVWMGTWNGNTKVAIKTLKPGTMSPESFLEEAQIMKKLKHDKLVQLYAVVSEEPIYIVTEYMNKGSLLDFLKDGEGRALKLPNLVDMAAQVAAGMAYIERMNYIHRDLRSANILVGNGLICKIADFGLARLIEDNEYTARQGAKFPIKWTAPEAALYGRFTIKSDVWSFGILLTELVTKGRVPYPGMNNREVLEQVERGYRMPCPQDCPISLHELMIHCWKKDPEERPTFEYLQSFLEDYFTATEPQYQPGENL
UniProt P49840: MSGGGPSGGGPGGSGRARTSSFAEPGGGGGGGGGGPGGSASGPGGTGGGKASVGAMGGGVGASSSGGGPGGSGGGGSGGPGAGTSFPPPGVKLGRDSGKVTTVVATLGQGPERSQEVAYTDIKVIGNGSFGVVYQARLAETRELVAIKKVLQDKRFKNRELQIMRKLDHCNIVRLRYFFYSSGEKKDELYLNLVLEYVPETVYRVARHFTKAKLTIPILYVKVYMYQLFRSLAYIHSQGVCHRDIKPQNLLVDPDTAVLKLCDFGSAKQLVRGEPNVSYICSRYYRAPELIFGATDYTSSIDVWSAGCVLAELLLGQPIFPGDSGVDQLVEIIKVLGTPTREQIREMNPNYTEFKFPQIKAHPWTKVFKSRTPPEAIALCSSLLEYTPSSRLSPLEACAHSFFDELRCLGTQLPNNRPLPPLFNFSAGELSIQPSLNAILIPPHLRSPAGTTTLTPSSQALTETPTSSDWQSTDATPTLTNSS
UniProt P14616: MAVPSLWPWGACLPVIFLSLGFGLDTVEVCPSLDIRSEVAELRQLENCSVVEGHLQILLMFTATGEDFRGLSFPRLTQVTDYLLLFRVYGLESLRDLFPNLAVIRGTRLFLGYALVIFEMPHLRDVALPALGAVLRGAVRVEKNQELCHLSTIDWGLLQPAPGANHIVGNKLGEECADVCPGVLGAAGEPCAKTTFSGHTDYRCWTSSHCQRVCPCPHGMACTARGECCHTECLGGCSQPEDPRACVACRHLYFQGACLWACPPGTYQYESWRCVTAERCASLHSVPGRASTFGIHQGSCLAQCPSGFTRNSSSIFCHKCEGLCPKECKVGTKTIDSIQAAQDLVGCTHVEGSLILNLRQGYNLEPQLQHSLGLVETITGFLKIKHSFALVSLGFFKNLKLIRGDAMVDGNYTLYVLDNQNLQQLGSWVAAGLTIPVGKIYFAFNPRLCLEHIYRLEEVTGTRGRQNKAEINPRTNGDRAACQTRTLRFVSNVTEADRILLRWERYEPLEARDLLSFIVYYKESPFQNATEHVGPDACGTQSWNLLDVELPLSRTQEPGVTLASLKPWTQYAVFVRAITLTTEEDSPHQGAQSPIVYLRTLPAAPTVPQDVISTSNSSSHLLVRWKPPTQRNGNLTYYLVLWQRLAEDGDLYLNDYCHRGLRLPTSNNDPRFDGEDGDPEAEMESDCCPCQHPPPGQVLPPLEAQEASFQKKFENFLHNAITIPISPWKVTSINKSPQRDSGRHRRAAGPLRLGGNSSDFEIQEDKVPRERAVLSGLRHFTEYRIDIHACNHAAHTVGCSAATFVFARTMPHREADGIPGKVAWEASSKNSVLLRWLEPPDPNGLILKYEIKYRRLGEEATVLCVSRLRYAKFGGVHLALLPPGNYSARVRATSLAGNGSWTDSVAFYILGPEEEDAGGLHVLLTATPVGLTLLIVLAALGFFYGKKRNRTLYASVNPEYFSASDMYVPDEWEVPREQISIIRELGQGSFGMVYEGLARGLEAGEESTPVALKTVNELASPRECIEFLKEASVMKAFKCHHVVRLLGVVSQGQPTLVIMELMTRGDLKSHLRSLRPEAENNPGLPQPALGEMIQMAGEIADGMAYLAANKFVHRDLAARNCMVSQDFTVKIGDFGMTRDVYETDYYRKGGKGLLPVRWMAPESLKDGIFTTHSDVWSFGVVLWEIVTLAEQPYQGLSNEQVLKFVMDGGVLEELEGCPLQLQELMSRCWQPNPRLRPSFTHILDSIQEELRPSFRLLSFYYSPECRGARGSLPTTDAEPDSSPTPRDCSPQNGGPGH

Tests used:
Experiment in all cases: kinase-Nluc reporter destabilization hit call (1 = scored as downregulated) (binary); higher = compound decreases kinase abundance
Conditions in all cases: K562; 2-18 h
ERN1 = ERN1 (UniProt O75460)
FGFR1 = FGFR1 (UniProt P11362)
FGFR2 = FGFR2 (UniProt P21802)
FGFR3 = FGFR3 (UniProt P22607)
FGR = FGR (UniProt P09769)
FLT3 = FLT3 (UniProt P36888)
FYN = FYN (UniProt P06241)
GSK3A = GSK3A (UniProt P49840)
HER2 = HER2 (UniProt P04626)
INSRR = INSRR (UniProt P14616)

Measured: kinase-Nluc reporter destabilization hit call

Cc1ccc(-n2nc(C(C)(C)C)cc2NC(=O)Nc2ccc(OCCN3CCOCC3)cc2)cc1 (10 µM)
inactive: ERN1 = 0 | FGFR1 = 0 | FGFR2 = 0 | FGFR3 = 0 | FGR 0 | FLT3 = 0 | FYN 0 | GSK3A 0 | HER2 = 0 | INSRR 0

N#Cc1ccc(-c2cnc3ccc(-c4ccc(C(=O)N5CCOCC5)cc4)cn23)cc1 (10 µM)
inactive: ERN1 = 0 | FGFR1 = 0 | FGFR2 = 0 | FGFR3 = 0 | FGR 0 | FLT3 = 0 | FYN 0 | GSK3A 0 | HER2 = 0 | INSRR 0

Cc1nc[nH]c1CN1CCN(C(=O)N[C@@H](CC(C)C)C(=O)O)[C@@H](Cc2ccccc2)C1=O (10 µM)
inactive: ERN1 = 0 | FGFR1 = 0 | FGFR2 = 0 | FGFR3 = 0 | FGR 0 | FLT3 = 0 | FYN 0 | GSK3A 0 | HER2 = 0 | INSRR 0

CCN1CCN(Cc2cnc(Nc3cc(-c4cc(F)c5nc(C)n(C(C)C)c5c4)c(F)cn3)nc2)CC1 (10 µM)
inactive: ERN1 = 0 | FGFR1 = 0 | FGFR2 = 0 | FGFR3 = 0 | FGR 0 | FLT3 = 0 | FYN 0 | GSK3A 0 | HER2 = 0 | INSRR 0

O=C(NCCO)c1cc(C(=O)NCCO)cc(C(=O)NCCO)c1 (10 µM)
inactive: ERN1 = 0 | FGFR1 = 0 | FGFR2 = 0 | FGFR3 = 0 | FGR 0 | FLT3 = 0 | FYN 0 | GSK3A 0 | HER2 = 0 | INSRR 0

Nc1ncc(-c2ccnc(Nc3ccncc3)n2)c(CC2CC2)n1 (10 µM)
inactive: ERN1 = 0 | FGFR1 = 0 | FGFR2 = 0 | FGFR3 = 0 | FGR 0 | FLT3 = 0 | FYN 0 | GSK3A 0 | HER2 = 0 | INSRR 0

NC[C@@](O)(c1ccc(Cl)cc1)c1ccc(-c2cn[nH]c2)cc1 (10 µM)
inactive: ERN1 = 0 | FGFR1 = 0 | FGFR2 = 0 | FGFR3 = 0 | FGR 0 | FLT3 = 0 | FYN 0 | GSK3A 0 | HER2 = 0 | INSRR 0

NC1(C(=O)NCCCn2cc(-c3ccc(OC(F)(F)F)cc3)c3cc(CN4CCN(Cc5c(Cl)cccc5Cl)CC4)ccc32)CCNCC1 (2.5 µM)
inactive: ERN1 = 0 | FGFR1 = 0 | FGFR2 = 0 | FGFR3 = 0 | FGR 0 | FLT3 = 0 | FYN 0 | GSK3A 0 | HER2 = 0 | INSRR 0

CNC(=O)c1ccc2c(c1)ncn2-c1ccc(CC(=O)OC(C)(C)C)cc1 (10 µM)
inactive: ERN1 = 0 | FGFR1 = 0 | FGFR2 = 0 | FGFR3 = 0 | FGR 0 | FLT3 = 0 | FYN 0 | GSK3A 0 | HER2 = 0 | INSRR 0

NC(=O)c1cnc(-c2ccc(C3(N)CCC3)cc2)c(-c2ccccc2)c1 (10 µM)
inactive: ERN1 = 0 | FGFR1 = 0 | FGFR2 = 0 | FGFR3 = 0 | FGR 0 | FLT3 = 0 | FYN 0 | GSK3A 0 | HER2 = 0 | INSRR 0

CCNC(=O)C#Cc1ccc2c(C(=Nc3ccc(CN(C)C)cc3)c3ccccc3)c(O)[nH]c2c1 (2.5 µM)
inactive: ERN1 = 0 | FGFR1 = 0 | FGFR2 = 0 | FGFR3 = 0 | FGR 0 | FLT3 = 0 | FYN 0 | GSK3A 0 | HER2 = 0 | INSRR 0

COc1cc(N2CCC(N3CCN(C)CC3)CC2)ccc1Nc1ncc(Cl)c(-c2c[nH]c3ccccc23)n1 (2.5 µM)
inactive: ERN1 = 0 | FGFR1 = 0 | FGFR2 = 0 | FGFR3 = 0 | FGR 0 | FLT3 = 0 | FYN 0 | GSK3A 0 | HER2 = 0 | INSRR 0

COc1cc(F)ccc1-c1ncnc(Nc2cccc(C[S@](C)(=N)=O)c2)n1 [Atuveciclib] (2.5 µM)
inactive: ERN1 = 0 | FGFR1 = 0 | FGFR2 = 0 | FGFR3 = 0 | FGR 0 | FLT3 = 0 | FYN 0 | GSK3A 0 | HER2 = 0 | INSRR 0

COc1cc(N2CCOCC2)ccc1Nc1ncc(F)c(Nc2ccccc2NS(C)(=O)=O)n1 (10 µM)
inactive: ERN1 = 0 | FGFR1 = 0 | FGFR2 = 0 | FGFR3 = 0 | FGR 0 | FLT3 = 0 | FYN 0 | GSK3A 0 | HER2 = 0 | INSRR 0

COc1c(O)cc2oc(-c3ccc(O)cc3)cc(=O)c2c1O [Hispidulin] (10 µM)
inactive: ERN1 = 0 | FGFR1 = 0 | FGFR2 = 0 | FGFR3 = 0 | FGR 0 | FLT3 = 0 | FYN 0 | GSK3A 0 | HER2 = 0 | INSRR 0

O=C(O)c1ccc(/C=C/S(=O)(=O)Cc2ccc(Cl)cc2)cc1 [Recilisib] (10 µM)
inactive: ERN1 = 0 | FGFR1 = 0 | FGFR2 = 0 | FGFR3 = 0 | FGR 0 | FLT3 = 0 | FYN 0 | GSK3A 0 | HER2 = 0 | INSRR 0

CC1(N)CCN(c2cccnc2NC(=O)c2nc(-c3ncccc3C(F)(F)F)cnc2N)CC1 [Darovasertib] (10 µM)
inactive: ERN1 = 0 | FGFR1 = 0 | FGFR2 = 0 | FGFR3 = 0 | FGR 0 | FLT3 = 0 | FYN 0 | GSK3A 0 | HER2 = 0 | INSRR 0

COc1cc2ncnc(Oc3ccc(CC(=O)Nc4cnn(C(C)C)c4)cc3)c2cc1OC (10 µM)
inactive: ERN1 = 0 | FGFR1 = 0 | FGFR2 = 0 | FGFR3 = 0 | FGR 0 | FLT3 = 0 | FYN 0 | GSK3A 0 | HER2 = 0 | INSRR 0

Cn1c2cc([S+](C)[O-])sc2c2cnn(Cc3cccc(N)c3)c(=O)c21 (stereo not given) (2.5 µM)
inactive: ERN1 = 0 | FGFR1 = 0 | FGFR2 = 0 | FGFR3 = 0 | FGR 0 | FLT3 = 0 | FYN 0 | GSK3A 0 | HER2 = 0 | INSRR 0

COc1ccc(-c2cc(=O)c3c(OC)cc(OC)c(OC)c3o2)cc1 [6-Demethoxytangeretin] (10 µM)
inactive: ERN1 = 0 | FGFR1 = 0 | FGFR2 = 0 | FGFR3 = 0 | FGR 0 | FLT3 = 0 | FYN 0 | GSK3A 0 | HER2 = 0 | INSRR 0

CC(Cc1ccc(O)c(O)c1)C(C)Cc1ccc(O)c(O)c1 (stereo not given) [Nordihydroguaiaretic acid] (2.5 µM)
inactive: ERN1 = 0 | FGFR1 = 0 | FGFR2 = 0 | FGFR3 = 0 | FGR 0 | FLT3 = 0 | FYN 0 | GSK3A 0 | HER2 = 0 | INSRR 0

Taken from the results shown, 2 compounds:
COc1cc2ncnc(Oc3ccc(CC(=O)Nc4cnn(C(C)C)c4)cc3)c2cc1OC (10 µM)
inactive: ERN1 = 0 | FGFR1 = 0 | FGFR2 = 0 | FGFR3 = 0 | FGR 0 | FLT3 = 0 | FYN 0 | GSK3A 0 | HER2 = 0 | INSRR 0

Cn1c2cc([S+](C)[O-])sc2c2cnn(Cc3cccc(N)c3)c(=O)c21 (stereo not given) (2.5 µM)
inactive: ERN1 = 0 | FGFR1 = 0 | FGFR2 = 0 | FGFR3 = 0 | FGR 0 | FLT3 = 0 | FYN 0 | GSK3A 0 | HER2 = 0 | INSRR 0

Remaining list, next part

CC(C)n1c(=O)n(C)c2cnc3cc(F)c(-c4ccc(OCCCN5CCCCC5)nc4)cc3c21 (10 µM)
inactive: ERN1 = 0 | FGFR1 = 0 | FGFR2 = 0 | FGFR3 = 0 | FGR 0 | FLT3 = 0 | FYN 0 | GSK3A 0 | HER2 = 0 | INSRR 0

CNC(=O)c1ccc2c(C(=Nc3cccc(CN(C)C)c3)c3ccccc3)c(O)[nH]c2c1 [MEK inhibitor] (10 µM)
inactive: ERN1 = 0 | FGFR1 = 0 | FGFR2 = 0 | FGFR3 = 0 | FGR 0 | FLT3 = 0 | FYN 0 | GSK3A 0 | HER2 = 0 | INSRR 0

Cc1c(Cl)cccc1S(=O)(=O)Nc1nc(NCCc2ccccc2)nc2c1CN(Cc1ccccc1)CC2 (2.5 µM)
inactive: ERN1 = 0 | FGFR1 = 0 | FGFR2 = 0 | FGFR3 = 0 | FGR 0 | FLT3 = 0 | FYN 0 | GSK3A 0 | HER2 = 0 | INSRR 0

COc1cc2c(cc1O)C[C@H]1c3cc(O)c(OC)cc3CC[N@@+]1(C)C2 [Phellodendrine] (10 µM)
inactive: ERN1 = 0 | FGFR1 = 0 | FGFR2 = 0 | FGFR3 = 0 | FGR 0 | FLT3 = 0 | FYN 0 | GSK3A 0 | HER2 = 0 | INSRR 0

Cc1cccc(/C=N/Nc2cc(N3CCOCC3)n3nc(-c4ccncc4)cc3n2)c1 (10 µM)
inactive: ERN1 = 0 | FGFR1 = 0 | FGFR2 = 0 | FGFR3 = 0 | FGR 0 | FLT3 = 0 | FYN 0 | GSK3A 0 | HER2 = 0 | INSRR 0

Cc1nn(C)cc1-c1nc2c(N3CCN(Cc4ccc(Cl)cc4)CC3)c(Cl)cnc2[nH]1 (10 µM)
inactive: ERN1 = 0 | FGFR1 = 0 | FGFR2 = 0 | FGFR3 = 0 | FGR 0 | FLT3 = 0 | FYN 0 | GSK3A 0 | HER2 = 0 | INSRR 0

N#Cc1cnc2c(Cl)cc(NCc3cn(CCN4CCCCCC4)nn3)cc2c1Nc1ccc(F)c(Cl)c1 [Cot inhibitor-1] (10 µM)
inactive: ERN1 = 0 | FGFR1 = 0 | FGFR2 = 0 | FGFR3 = 0 | FGR 0 | FLT3 = 0 | FYN 0 | GSK3A 0 | HER2 = 0 | INSRR 0

Cc1ccc(C(=O)NC2CC2)cc1-n1ncc(C(=O)c2cccc(C#N)c2)c1N [Acumapimod] (10 µM)
inactive: ERN1 = 0 | FGFR1 = 0 | FGFR2 = 0 | FGFR3 = 0 | FGR 0 | FLT3 = 0 | FYN 0 | GSK3A 0 | HER2 = 0 | INSRR 0

C=CC(=O)N1CCC[C@@H](n2nc(-c3ccc(Oc4ccccc4)cc3)c3c(N)n[nH]c(=O)c32)C1 [BTK inhibitor 17] (10 µM)
inactive: ERN1 = 0 | FGFR1 = 0 | FGFR2 = 0 | FGFR3 = 0 | FGR 0 | FLT3 = 0 | FYN 0 | GSK3A 0 | HER2 = 0 | INSRR 0
